# Several values for one entry are separate records, joined by “and”; a condition that tells them apart may be missing. Equal values may be shown once. Where a name gives a salt, the structure may show the parent alone. ± gives the standard deviation of the averaged measurements. This is one part of the list. Plates or batches differ in their baseline, so values are only roughly comparable.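 Assay uses culture-activated primary human stellate myofibroblasts; lipid droplet recovery indicates inactivation. Measured: proportion of Hoechst-counted cells over a plate-specific Bodipy cutoff, duplicate wells, DMSO and nortriptyline as per-plate negative and positive controls. A hit scores, control-normalized, above the plate's top-tenth-percentile nortriptyline wells or ranks among its three best wells. Final well concentrations not reported.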
# Tested on: primary human hepatic stellate cells (donor 1)
# Test: percent Bodipy-positive cells; higher = more lipid droplet accumulation
# Details: 48 h
# [1] = library stock concentration: 10 mM
# [2] = library stock concentration: 3.33 mM
# [3] = library stock concentration: 1 mM
# [4] = library stock concentration: 4 mM
# [5] = library stock concentration: 5.1 mM
compound,measurement,setting,value
CN(C)CCOC(=O)COc1ccc(Cl)cc1 [Meclofenoxate hydrochloride],percent Bodipy-positive cells,,10.2 ± 5.1%
same,percent Bodipy-positive cells,[1],33.9 ± 11%
CN(C)CCOC(=O)COc1ccc(Cl)cc1 [Centrophenoxine hydrochloride],percent Bodipy-positive cells,[1],31.3 ± 6.8%
"Brc1c(NC2=NCCN2)ccc2nccnc12 [UK 14,304 tartrate]",percent Bodipy-positive cells,[1],7.62 ± 1.4%
Brc1c(NC2=NCCN2)ccc2nccnc12 [Brimonidine Tartrate],percent Bodipy-positive cells,[2],9.64 ± 2.2%
same,percent Bodipy-positive cells,[1],28.4 ± 4.2%
Brc1c(NC2=NCCN2)ccc2nccnc12,percent Bodipy-positive cells,[1],18.2% and 5.48%
CSc1nc(-c2ccnc(NC(C)c3ccccc3)c2)c(-c2ccc(F)cc2)[nH]1 (centres undefined) [p38 MAP Kinase Inhibitor III],percent Bodipy-positive cells,[2],17.6 ± 0.19%
CCCCCCCCCCCCCCCC(=O)NCCc1ccc(O)c(O)c1 [N-Palmitoyl Dopamine],percent Bodipy-positive cells,[3],7.81 ± 3.4%
CC(N)C12CC3CC(CC(C3)C1)C2 (centres undefined) [Rimantadine hydrochloride],percent Bodipy-positive cells,library stock concentration: 9.3 mM,52.89 ± 0.49%
CC(N)C12CC3CC(CC(C3)C1)C2 (centres undefined) [Rimantadine],percent Bodipy-positive cells,[2],13.3 ± 5.9%
same,percent Bodipy-positive cells,[1],41.6 ± 0.47%
CS(=O)(=O)Nc1ccc([N+](=O)[O-])cc1OC1CCCCC1,percent Bodipy-positive cells,[3],8.08 ± 1.1%
COC(=O)C(N)CS (centres undefined) [Mecysteine hydrochloride],percent Bodipy-positive cells,[1],17.6 ± 8.7%
COc1cc(Nc2ncc(F)c(Nc3ccc4c(n3)NC(=O)C(C)(C)O4)n2)cc(OC)c1OC [R406 (free base)],percent Bodipy-positive cells,[2],68.78 ± 0.6%
same,percent Bodipy-positive cells,[1],90.4 ± 5.2%
C[C@H]1C[C@@H]2[C@H]([C@@H](O)C[C@@]3(C)[C@H]2CC[C@]3(O)C(=O)COC(=O)CCC(=O)O)[C@@]2(C)C=CC(=O)C=C12 [Methylprednisolone sodium succinate],percent Bodipy-positive cells,[4],8.59 ± 1.9%
CCC(=O)NC[C@H](Cc1ccc(OCCc2nc(-c3ccccc3)oc2C)cc1)N/C(C)=C\C(=O)c1ccc(C(F)(F)F)cc1,percent Bodipy-positive cells,[1],5.52 ± 3.7%
Fc1cc(-c2cccc3ncc(-c4cnn(C5CCNCC5)c4)nc23)cc(F)c1CN1CCOCC1,percent Bodipy-positive cells,[2],99.6 ± 0.57%
same,percent Bodipy-positive cells,[1],99.2 ± 1.2%
C[n+]1cc2c3c(ccc2c2ccc4cc5c(cc4c21)OCO5)OCO3 [Sanguinarine],percent Bodipy-positive cells,,100%
Nc1cc(-c2ccncc2)c[nH]c1=O,percent Bodipy-positive cells,[1],46 ± 15%
Nc1cc(-c2ccncc2)c[nH]c1=O [Amrinone],percent Bodipy-positive cells,,10.7 ± 2%
CCOC(=O)c1c(C)n(C)c2ccc(O)cc12 [Mecarbinate],percent Bodipy-positive cells,[2],17.9 ± 13%
same,percent Bodipy-positive cells,[1],25.6 ± 5.8%
COC(=O)/C=C/C(=O)N(O)CCCCNCc1ccc(COC(=O)Nc2cccc3ccccc23)cc1 [Methylstat],percent Bodipy-positive cells,library stock concentration: 80 uM,35.7 ± 5.9%
same,percent Bodipy-positive cells,library stock concentration: 400 uM,40 ± 1.8%
same,percent Bodipy-positive cells,library stock concentration: 2 mM,61.4 ± 11%
same,percent Bodipy-positive cells,[1],99 ± 1.5%
COc1ccc(C[C@@H]2c3cc(OC)c(OC)cc3CC[N@+]2(C)CCC(=O)OCCCCCOC(=O)CC[N@@+]2(C)CCc3cc(OC)c(OC)cc3[C@H]2Cc2ccc(OC)c(OC)c2)cc1OC [Cisatracurium Besylate],percent Bodipy-positive cells,[2],12.4 ± 9.7%
same,percent Bodipy-positive cells,[1],20.7 ± 1.2%
c1ccc2c(c1)CCCc1cc(NCCN3CCOCC3)nnc1-2,percent Bodipy-positive cells,,21.5 ± 0.24%
COC(=O)CCCCCCC1C(O)CC(O)C1CCC(O)CSc1ccccc1F (centres undefined),percent Bodipy-positive cells,[3],8.09 ± 8.1%
CN(CCOc1ccc(CC2SC(=O)NC2=O)cc1)c1ccccn1 (centres undefined),percent Bodipy-positive cells,[1],14.3% and 6.07%
CN(CCOc1ccc(CC2SC(=O)NC2=O)cc1)c1ccccn1 (centres undefined) [Rosiglitazone],percent Bodipy-positive cells,[3],5.37 ± 0.15%
same,percent Bodipy-positive cells,[2],5.44 ± 0.57%
CN(CCOc1ccc(CC2SC(=O)NC2=O)cc1)c1ccccn1 (centres undefined) [Rosiglitazone (potassium salt)],percent Bodipy-positive cells,[3],5.71 ± 0.29%
CCC(=O)OCC(=O)[C@@]1(OC(=O)CC)[C@H](C)C[C@H]2[C@H]3[C@H]([C@@H](O)C[C@@]21C)[C@@]1(C)C=CC(=O)C=C1C[C@H]3Cl [Alclometasone dipropionate],percent Bodipy-positive cells,,7.87 ± 0.71%
c1ccc2nc(C3=NCCN3)cnc2c1 [BU 239 hydrochloride],percent Bodipy-positive cells,[1],6.87 ± 0.21%
CN(C)CC[C@@H](c1ccc(Cl)cc1)c1ccccn1,percent Bodipy-positive cells,[1],38.5 ± 1.1%
CN(C)CC[C@@H](c1ccc(Cl)cc1)c1ccccn1 [Dexchlorpheniramine maleate],percent Bodipy-positive cells,[5],21.1 ± 5.6%
CN(C)CC[C@@H](c1ccc(Cl)cc1)c1ccccn1 [Chlorpheniramine (s) maleate],percent Bodipy-positive cells,[5],14 ± 0.18%
same,percent Bodipy-positive cells,[1],25.9 ± 5.3%
CCCCC[C@H](O)/C=C/[C@H]1[C@H](O)CC(=O)[C@@H]1C/C=C/CCCC(=O)O [5-trans Prostaglandin E2],percent Bodipy-positive cells,[3],19.5 ± 3.2%
Cn1c([N+](=O)[O-])cnc1COC(N)=O [Ronidazole],percent Bodipy-positive cells,,9.966 ± 0.096%
same,percent Bodipy-positive cells,[2],8.61 ± 2.2%
same,percent Bodipy-positive cells,[1],26.8% and 30.9%
COC(=O)c1ccc(O)c2nc3c(C=O)c(O)cc(O)c3nc12 [Lomofungin],percent Bodipy-positive cells,library stock concentration: 6.4 mM,15.1 ± 6.1%
CCN(c1cc(-c2ccc(CN3CCOCC3)cc2)cc(C(=O)NCc2c(C)cc(C)[nH]c2=O)c1C)C1CCOCC1,percent Bodipy-positive cells,[2],40.1 ± 4.3%
same,percent Bodipy-positive cells,[1],47.9 ± 4.1%
NC(N)=O,percent Bodipy-positive cells,[1],23.7 ± 6.4%
same,percent Bodipy-positive cells,library stock concentration: 33.3 mM,17.1 ± 7.8%
"CCCCC[C@H]1C=C[C@@H]2[C@@H](CC=CCCCC(=O)O1)[C@@H](O)C[C@H]2O [Prostaglandin F2.alpha. 1,15-lactone]",percent Bodipy-positive cells,[3],13.7 ± 6.3%
O=C1c2ccccc2S(=O)(=O)N1CCCCN1CCN(c2ncccn2)CC1 [Ipsapirone],percent Bodipy-positive cells,[1],8.67 ± 0.33%
O=C(O)/C(=C\c1c(C(=O)O)[nH]c2cc(Cl)cc(Cl)c12)c1ccccc1,percent Bodipy-positive cells,[1],28.2 ± 1.9%
CN(C)[C@@H]1C(O)=C(C(N)=O)C(=O)[C@@]2(O)C(O)=C3C(=O)c4c(O)ccc(Cl)c4[C@@H](O)[C@H]3C[C@@H]12 [Demeclocycline],percent Bodipy-positive cells,[1],27.9 ± 2.5%
CN(C)[C@@H]1C(O)=C(C(N)=O)C(=O)[C@@]2(O)C(O)=C3C(=O)c4c(O)ccc(Cl)c4[C@@H](O)[C@H]3C[C@@H]12 [Demeclocycline hydrochloride],percent Bodipy-positive cells,,6.96 ± 0.56%
same,percent Bodipy-positive cells,[4],2.23 ± 1.1%
same,percent Bodipy-positive cells,[1],9.6 ± 2.4%

# Another view of part of the listing above:
compound	measurement	setting	value
COC(=O)CCCCCCC1C(O)CC(O)C1CCC(O)CSc1ccccc1F (centres undefined)	percent Bodipy-positive cells	[3]	8.09 ± 8.1%
CN(CCOc1ccc(CC2SC(=O)NC2=O)cc1)c1ccccn1 (centres undefined)	percent Bodipy-positive cells	[1]	14.3% and 6.07%
CN(CCOc1ccc(CC2SC(=O)NC2=O)cc1)c1ccccn1 (centres undefined) [Rosiglitazone]	percent Bodipy-positive cells	[3]	5.37 ± 0.15%
